Values from PubChem BioAssay AID1053208 (Peter MacCallum Cancer Centre, 2014)

Assay: 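Genes whose silencing cuts survival of bone tumour cells only with doxorubicin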 (primary screen)
Cells: mouse osteosarcoma cells, early-passage culture from an engineered mouse model of fibroblastic bone tumour
Reagents: siRNA pool against mouse genes, 40 nM
Timing: about 120 h (48 h before drug, then 72 h with drug)
Challenge: doxorubicin 100 nM for 72 h, roughly 30-40% inhibitory dose
Measurement: 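Viability read as ATP luminescence after 72 h of 100 nM doxorubicin or none, duplicate wells averaged, scaled to non-targeting siRNA, then expressed as robust z-scores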
Reading the numbers: viability z-score with doxorubicin: higher = more viable cells under doxorubicin; viability z-score without drug: higher = more viable cells with knock-down alone
Active means: 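a pool counts as active when its viability z-score with doxorubicin is -2 or below and its z-score without drug lies between -2 and 2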
Here is an unselected part of about 17,000 reagents tested. 788 of them (4.7%) were called active. 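Calls rest on z-score classes alone; an extra cut-off of viability at most 70% of control was not applied to them.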 Further read-outs or replicates are left out here.

no.	target	combined z-score class	viability z-score with doxorubicin	viability z-score without drug	outcome
1	Kcnk5 (GeneID 16529)	no change with or without drug	-1.24	-1.85	inactive
2	Prodh2 (GeneID 56189)	no change with or without drug	0.56	-0.51	inactive
3	Tcstv1a (GeneID 54382)	no change with or without drug	-1.12	-1.01	inactive
4	Otub1 (GeneID 107260)	no change with or without drug	1.69	0.17	inactive
5	Tmem87a (GeneID 211499)	no change with or without drug	0.11	0.51	inactive
6	Ddx56 (GeneID 52513)	no change with or without drug	-0.9	-0.51	inactive
7	Akr1c18 (GeneID 105349)	no change with or without drug	0.67	0.17	inactive
8	Eya1 (GeneID 14048)	no change with or without drug	1.01	0.51	inactive
9	Xrcc2 (GeneID 57434)	no change with or without drug	-0.9	-0.51	inactive
10	Il11ra2 (GeneID 16158)	high cell count with doxorubicin only	2.02	0.84	inactive
11	Htr1a (GeneID 15550)	no change with or without drug	1.35	0.34	inactive
12	Bmpr2 (GeneID 12168)	no change with or without drug	0	-0.84	inactive
13	Aph1c (GeneID 68318)	no change with or without drug	-1.8	0.34	inactive
14	Otud7a (GeneID 170711)	no change with or without drug	0.67	0.51	inactive
15	Sephs1 (GeneID 109079)	no change with or without drug	-0.9	-0.17	inactive
16	Slc34a1 (GeneID 20505)	no change with or without drug	0.22	-1.52	inactive
17	Tinag (GeneID 26944)	no change with or without drug	1.57	0.17	inactive
18	Pdk3 (GeneID 236900)	no change with or without drug	0.22	-1.18	inactive
19	Sdr16c5 (GeneID 242285)	low cell count with and without drug	-6.52	-5.73	inactive
20	Rax (GeneID 19434)	high cell count with and without drug	2.36	2.53	inactive

Part of the list above, set out differently:
Tinag (GeneID 26944)
- combined z-score class: no change with or without drug
- viability z-score with doxorubicin: 1.57
- viability z-score without drug: 0.17
- outcome: inactive

Pdk3 (GeneID 236900)
- combined z-score class: no change with or without drug
- viability z-score with doxorubicin: 0.22
- viability z-score without drug: -1.18
- outcome: inactive
